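Genome-wide siRNA knockdown in TC32 Ewing sarcoma cells, comparing luciferase light from an NR0B1-promoter reporter with a CMV-promoter reporter 48 hours after transfection.
Each siRNA was applied at 20 nM.
A z-score of the log NR0B1-over-CMV signal, less the median of siRNAs with the same seed; more negative means a stronger specific loss of the NR0B1 reporter.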

This is part of the screen; most of the strongest results are not listed here.
Sequences are the guide (antisense) strand, without overhang.

| Sequence | target gene | seed-corrected z-score |
|---|---|---|
| `UGCGUAACAUCGUUGAAUC` | TRMT10A | 0.2714 |
| `AAUUGAUUUAUGAACUUCC` | CEP89 | -0.4912 |
| `GAUAAUAUCAAGCAAAGGC` | CKLF | 1.592 |
| `UGUAGUCUAUGGUUUUUCG` | WDR33 | 0.653 |
| `AGGUUGUCCACAAGGGUGG` | NPFFR1 | 0.4733 |
| `UGUAGGAAUAGAUGGGUUU` | FOXN1 | -0.8471 |
| `UUAGGUGAGACCACAUCAG` | C3AR1 | 0.01313 |
| `AUAGGGUUAACCAUUGCAC` | UBR3 | 0.8638 |
| `AACUUUUCGACUUGAGCUC` | GPC4 | 1.197 |
| `UCCUUUUCCAUUCUUAGCC` | LOC400867 | -0.4307 |
| `UCAAUGGACAGAGAAGGGU` | UCN | -0.06634 |
| `UCAUUUGACACCGUCAUGA` | C11orf53 | 0.003188 |
| `UUCUUGUUGAGGGAUGACG` | ATP2B2 | 0.04294 |
| `UUGUUAAUUCGGCAAAUCC` | RELB | 0.06743 |
| `UCCAUAGUUGGUCUCAUCC` | RACK1 | -0.09785 |
| `UCCAGCUUAACGGUAUUUG` | HBA1 | -1.948 |
| `AAUAUCACCGUACAUUCUG` | EXOSC6 | -0.2763 |
| `ACUUGUAAGACUUCUCUCC` | ZNF91 | 0.5283 |
| `UAAGUUGUCAGCCACACUG` | SERTAD1 | -0.3971 |
| `UGAGAUAUUGUUCUAAUCC` | UBR2 | 0.146 |
| `UUUAAUUUCCGGAUGAAGG` | ZIM3 | 0.5638 |
| `AUGUAUUUUGGUCCUGUUC` | NAA60 | -1.145 |
| `UCCAUAGUCGGUUAGCAGG` | ASB11 | 0.1469 |
| `GAGAUCAAAGGUUCAGUGC` | KRTAP23-1 | 0.1519 |
| `UCUUGAAUAAUUUGAAGGC` | AMER2 | 0.3989 |
| `AACUACGUAAGGAUGAGCC` | ALKBH5 | -0.3944 |
| `UUGAGGAUGACAUAAAGGC` | ZNF626 | 0.6177 |
| `UUGGAGUUGAACUUUCUGG` | ZNRF3 | -0.888 |
| `UAUCUCUCUGCCGAUAUUC` | RLIM | 0.3775 |
| `UUCUAAUUUUGAGUCCACC` | TTC39B | -0.04 |
| `AAAGCUUGUCCUUUCAUAC` | RNPC3 | 0.2474 |
| `AACUUGGUCUUUAUUGUCG` | CYTH1 | -0.7457 |
| `UUCUACUCCUCAAUCCAGC` | MIR22HG | 1.525 |
| `UCUUGGAAUAGGGCUACUG` | ADAMTSL4 | -0.1241 |
| `UUAGUAGCAAGAGAAGCAG` | SNX19P3 | -1.29 |
| `UAAUCAUAAAAUCAACUCC` | RAB30 | -0.3223 |
| `UCCGGAAUCCAAAGGCUCC` | LOC145783 | 0.569 |
| `UUCCUGUCGAUGAAUGCGU` | ATG4B | 0.6889 |
| `UGACUACCUAGCUUGAAUC` | C19orf54 | 0.3637 |
| `UAGGAUAUCAAGAAUGCUC` | LOC644893 | 0.7437 |
| `UAUACGUAAGCUGAGAGAC` | SNX25 | 0.3766 |
| `UUGUUCAAAAGUAAGUUCC` | FBXL4 | 0.5459 |
| `UAGUUGUUGAAGUCCGAGC` | PLPP2 | 0.7005 |
| `UUGGUCCUCAGUGUAGUAC` | HABP2 | -0.9365 |
| `UUCUUUUACCCUGUCCACC` | TAF13 | -1.888 |
| `UCAAAUAACUGGUCGAAUC` | SERBP1 | 1.163 |
| `UCUGGGUUUCGUCAAGUAG` | NIFK | 1.306 |
| `UUCUCCGAGACCUUUCUGC` | LOC113230 | -0.3093 |
| `UACCUUACACCUGUACGUC` | ZNF362 | 0.5229 |
| `UUUCAUGUAGCGAUGGUUC` | FGF12 | 0.5242 |
| `UUUCUUACGGGUCUCCAGG` | CDC26 | -0.7477 |
| `UGAAAUCACAAGGUCAUUC` | CAP2 | 0.08116 |
| `UGAGGUUGACGUUGUACAG` | SCNN1D | -1.173 |
| `UAGUAGAACGGGCACCUCU` | ALG1L8P | 0.2695 |
| `UUCACGGUGUGGUUCCUGC` | CFAP65 | -0.6677 |
| `UUGAUUUUGACAUACCAGU` | RPL32P36 | -0.353 |
| `UGUUGAAACUGCUCUCUCC` | HSPB8 | 0.5601 |
| `UGUACUAUCUCAUUACUCC` | ARAP3 | 0.09614 |
| `UUGGUGCAUAAUGAUUCGG` | OCLN | -0.8131 |
| `UUUCUUCACAGGGCCUUCC` | PNPO | 1.632 |
| `UUUCCUAAGAAUACUUUUG` | SLC25A15 | -0.1691 |
| `ACGGUUACAAAAGUCCUUG` | PKNOX2 | -1.681 |
| `UUUGCAACCCGUCUAAACC` | ESF1 | 0.7388 |
| `UCUAUUAUUUCAGCUAUUG` | KPNA3 | -0.2834 |
| `UAAGAUCAGGGCUGGGUCG` | CHST3 | 0.2765 |
| `AAAAUGGUGAUCAUGAGUG` | NXF2B | 0.8382 |
| `AUCUAAAUGAUCUGUUUUC` | LOC643496 | 1.164 |
| `UGAUUUCAAAAUACCAGGC` | ASH2L | 0.6341 |
| `UUCUUAAAACCAUCCAGCG` | P4HB | -0.3678 |
| `UUUCCUAUGACCAUGGUCU` | TMED9 | -0.3909 |

Some entries from above, unchanged:

| Sequence | target gene | seed-corrected z-score |
|---|---|---|
| `UAAGUUGUCAGCCACACUG` | SERTAD1 | -0.3971 |
| `UUGUUCAAAAGUAAGUUCC` | FBXL4 | 0.5459 |
| `UUUCAUGUAGCGAUGGUUC` | FGF12 | 0.5242 |
| `UUGAGGAUGACAUAAAGGC` | ZNF626 | 0.6177 |
| `UGUUGAAACUGCUCUCUCC` | HSPB8 | 0.5601 |

The results are deposited in PubChem (AID1159506; NCATS, 2015).